Reference: patent EP3546476A1 (Repligen Corporation, dated 2019)

Molecular target: T1, Panitumomab (IgG2)
T1 construct: Used as the IgG2 sample; also called Panitumumab
Assay: SPR, Biacore 3000, CM5 chip, 25 °C, Langmuir 1:1 model

B1: cs14 (designed binder)
chain: IAAKHDKDQQAAFYEILHLPNLTEDQRNAFIQSLRDDPSVSLEILGEAKKLNDAQAPPWSHPQFEK
Q: With B1 as the binder, how does the Kd read?
A: Its Kd is 7.42 nM.
